{"source": "patent US20050214798A1", "about": "(WISTAR INSTITUTE OF ANATOMY AND BIOLOGY, published 2005)", "key": {"[1]": {"molecular_target": "T1, Bin2 (Bridging INtegrator-2) (human, UniProt Q9UBW5 1-565)", "T1 construct": "In vitro translated in the presence of 35S-methionine from the full-length cDNA", "T1 sequence": "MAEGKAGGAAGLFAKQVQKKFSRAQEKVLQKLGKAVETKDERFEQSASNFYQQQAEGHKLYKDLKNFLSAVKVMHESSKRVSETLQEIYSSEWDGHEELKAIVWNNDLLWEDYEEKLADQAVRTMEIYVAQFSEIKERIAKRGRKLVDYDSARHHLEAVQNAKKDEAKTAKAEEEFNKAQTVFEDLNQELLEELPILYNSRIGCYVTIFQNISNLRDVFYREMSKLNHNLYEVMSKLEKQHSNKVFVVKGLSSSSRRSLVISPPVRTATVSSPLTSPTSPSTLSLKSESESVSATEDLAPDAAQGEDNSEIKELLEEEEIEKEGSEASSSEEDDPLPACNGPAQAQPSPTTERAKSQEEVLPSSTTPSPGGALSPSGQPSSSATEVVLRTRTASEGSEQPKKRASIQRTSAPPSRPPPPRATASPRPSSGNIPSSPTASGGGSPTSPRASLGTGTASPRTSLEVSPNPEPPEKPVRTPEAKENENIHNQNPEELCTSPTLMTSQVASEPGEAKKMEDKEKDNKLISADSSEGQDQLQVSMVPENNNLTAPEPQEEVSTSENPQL", "test": "co-immunoprecipitation with anti-Bin1 antibody 99D of 35S-labelled cotranslated proteins, SDS-PAGE and fluorography"}, "[2]": {"molecular_target": "T1, Bin2 (Bridging INtegrator-2)", "test": "co-immunoprecipitation of in vitro translated proteins"}, "[3]": {"molecular_target": "T1, Bin2 (Bridging INtegrator-2)", "test": "co-immunoprecipitation of in vitro translated proteins, deletion mutant", "source_text": "Stable complexes have been reported in yeast between RVS161 and RVS167 and in brain between amphiphysin and brain-specific splice isoforms of Bin1 [Navarro et al., Biochim. Biophys. Acta, 1343: 187-192 (1997); Wigge et al., Mol. Biol. Cell 8: 2003-2015 (1997)]. Since Bin1 is expressed in hematopoietic cells, whether Bin2 and Bin1 could also form a stable biochemical complex was investigated. For coimmunoprecipitation experiments, Bin1 was in vitro translated in the presence or absence of Bin2 and complex formation was assessed by SDS-PAGE and fluorography after immunoprecipitation with the Bin1 monoclonal antibody 99D [Wechsler-Reya et al., Cancer Res. 57: 3258-3263 (1997)].\nOther deletion mutants of Bin1 lacking the so-called Unique central region, the Myc-binding domain, or the SH3 domain, interacted with Bin2 with the same efficiency as wild-type Bin1 (data not shown). It was concluded that Bin1 and Bin2 formed a BAR domain-dependent complex in cells."}}, "note": "No constants are given. Whether binding was seen depends on the method and setting. Binding seen in cells or lysates may run through a third protein. Some binding calls cover weakened binding; strength is not graded here.", "data": [{"binder": "Bin1 (Bridging INtegrator-1) (protein) AEMGSKGVTAGKIASNVQKKLTRAQEKVLQKLGKADETKDEQFEQCVQNFNKQLTEGTRLQKDLRTYLASVKAMHEASKKLNECLQEVYEPDWPGRDEANKIAENNDLLWMDYHQKLVDQALLTMDTYLGQFPDIKSRIAKRGRKLVDYDSARHHYESLQTAKKKDEAKIAKAEEELIKAQKVFEEMNVDLQEELPSLWNSRVGFYVNTFQSIAGLEENFHKEMSKLNQNLNDVLVGLEKQHGSNTFTVKA", "values": [{"measurement": "binding", "setting": "[1]", "value": "binds"}, {"measurement": "binding", "setting": "[2]", "value": "binds"}]}, {"binder": "Bin1 deletion mutant Δ143-148 (protein) MAEMGSKGVTAGKIASNVQKKLTRAQEKVLQKLGKADETKDEQFEQCVQNFNKQLTEGTRLQKDLRTYLASVKAMHEASKKLNECLQEVYEPDWPGRDEANKIAENNDLLWMDYHQKLVDQALLTMDTYLGQFPDIKSRIAKDYDSARHHYESLQTAKKKDEAKIAKAEEELIKAQKVFEEMNVDLQEELPSLWNSRVGFYVNTFQSIAGLEENFHKEMSKLNQNLNDVLVGLEKQHGSNTFTVKA", "values": [{"measurement": "binding", "setting": "[3]", "value": "binds"}]}]}
